Test results published in patent publication US20260043817A1.
Results are given in words; binding and its absence hold for the method and conditions named. In cells and extracts the contact can be indirect. Some entries that bind do so weakly or less than the wild type. Sequences can lack the tags named with a protein.

Chains of the proteins cited; added tags and fusions are not shown.
UniProt Q13148: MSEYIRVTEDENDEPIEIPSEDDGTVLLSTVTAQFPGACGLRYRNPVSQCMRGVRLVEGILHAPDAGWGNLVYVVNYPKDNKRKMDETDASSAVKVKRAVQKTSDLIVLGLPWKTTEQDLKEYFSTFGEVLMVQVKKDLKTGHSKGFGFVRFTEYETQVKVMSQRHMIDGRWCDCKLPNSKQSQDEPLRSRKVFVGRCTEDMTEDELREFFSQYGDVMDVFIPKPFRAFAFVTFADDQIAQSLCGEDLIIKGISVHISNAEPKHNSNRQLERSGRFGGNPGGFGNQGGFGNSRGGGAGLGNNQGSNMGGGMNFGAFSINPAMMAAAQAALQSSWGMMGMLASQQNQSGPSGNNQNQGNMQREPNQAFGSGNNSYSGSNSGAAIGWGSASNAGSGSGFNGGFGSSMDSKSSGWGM

What was measured:
[1] = biological target: misfolded TDP43 protein generated by sodium arsenite treatment (UniProt Q13148); experiment: co-immunoprecipitation with anti-FLAG M2 gel from sodium arsenite-treated A549 lysates, immunoblot
[2] = biological target: T1, misfolded hnRNP M1 protein generated by sodium arsenite treatment (UniProt P52272); experiment: as above
T1 sequence (looked up): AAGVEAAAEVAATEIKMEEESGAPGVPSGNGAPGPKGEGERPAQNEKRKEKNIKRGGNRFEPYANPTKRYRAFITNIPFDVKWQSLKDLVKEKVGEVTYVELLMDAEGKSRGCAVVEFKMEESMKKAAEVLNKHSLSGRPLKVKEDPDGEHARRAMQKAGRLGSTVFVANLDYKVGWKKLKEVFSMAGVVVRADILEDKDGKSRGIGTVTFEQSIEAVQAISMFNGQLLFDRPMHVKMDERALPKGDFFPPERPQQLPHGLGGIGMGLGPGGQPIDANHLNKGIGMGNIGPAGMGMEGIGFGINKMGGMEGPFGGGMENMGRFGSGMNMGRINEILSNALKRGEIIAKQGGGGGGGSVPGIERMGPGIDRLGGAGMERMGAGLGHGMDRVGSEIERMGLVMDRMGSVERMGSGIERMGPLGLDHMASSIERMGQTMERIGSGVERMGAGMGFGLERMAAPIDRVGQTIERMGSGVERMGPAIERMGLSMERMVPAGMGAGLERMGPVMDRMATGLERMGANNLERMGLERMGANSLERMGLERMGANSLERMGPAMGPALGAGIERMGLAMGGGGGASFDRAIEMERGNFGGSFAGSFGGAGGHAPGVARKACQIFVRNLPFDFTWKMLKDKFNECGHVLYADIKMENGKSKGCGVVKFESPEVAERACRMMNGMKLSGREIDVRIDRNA

[3] = biological target: misfolded TDP43 protein generated by sodium arsenite treatment (UniProt Q13148); experiment: FLAG-LONRF2 pull-down assay (FLAG-LONRF2 beads from SF9 cells) on A549 lysates, immunoblot
[4] = biological target: T1, misfolded hnRNP M1 protein generated by sodium arsenite treatment; experiment: as above
[5] = biological target: HA-tagged Fluc-DM (Fluc-HA-DM) (firefly) [luciferase: P08659]; experiment: co-immunoprecipitation with anti-FLAG M2 gel from HeLa lysates, immunoblot

- binding [1]: binds
- binding [2]: binds
- binding [3]: binds
- binding [4]: binds
- binding [5]: binds
B1: FLAG-LONRF2-WT (enzyme, not shown: small tags and cut ends)
chain: MSPEPVPPPPPPQCPGCDRAEPIAQRLEEGDEAFRAGDYEMAAELFRSMLAGLAQPDRGLCLRLGDALARAGRLPEALGAFRGAARLGALRPEELEELAGGLVRAVGLRDRPLSAENPGGEPEAPGEGGPAPEPRAPRDLLGCPRCRRLLHKPVTLPCGLTVCKRCVEPGPARPQVRRVNVVLSGLLEKCFPAECRLRRLAGQARSLQRQQQPEAALLRCDQALELAPDDNSLLLLRAELYLTMKNYEQALQDASAACQNEPLLIKGHQVKAQALSGLGRSKEVLKEFLYCLALNPECNSVKKEAQKVMCEVLFSATANVHENLTSSIQSRLKAQGHSHMNAQALLEEGDAGSSENSSEKSDMLGNTNSSVLYFILGLHFEEDKKALESILPTAPSAGLKRQFPDDVEDAPDLNAPGKIPKKDLSLQRSPNSETEESQGLSLDVTDFECALCMRLLFEPVTTPCGHTFCLKCLERCLDHAPHCPLCKDKLSELLASRNFNITVLAEELIFRYLPDELSDRKRIYDEEMSELSNLTRDVPIFVCAMAFPTVPCPLHVFEPRYRLMIRRCMETGTKRFGMCLSAEHAGLSEYGCMLEIKDVRTFPDGSSVVDAIGISRFRVLSHRHRDGYNTADIEYLEDEKVEGPEYEELAALHDSVHQQSVSWFASLQDRMKEQILSHFGVMPDREPEPQSNPSGPAWSWWILAVLPLERKAQLAILGMTSLKERLLAIRRILVIITRKMNSRQELANARERNN
